Data: PubChem BioAssay AID540256 (National Center for Advancing Translational Sciences (NCATS), 2011)
Several values for one entry are separate records, joined by “and”; a condition that tells them apart may be missing. Equal entries are not always repeated. Hit rate of the full screen: of about 300,000 compounds, about 3,700 (1.2%) were called active. The inconclusive results got no clear call from the source; some entries with a clear call stand among them for comparison. The call rests on the fitted dose curve; tested in HEK293 cells. Potencies of inconclusive entries are doubtful fits and often do not repeat.

Test: qHTS for Inhibitors of binding or entry into cells for Lassa Virus; further: nearly all actives have a fitted effect of over 50% in size
Conditions: Lassa virus pseudotype entry inhibition, cell reporter; activity change, negative = inhibition: at 37.9 µM (top of the series) unless noted
On the % scale 0 is the no-effect control and ±100 the full control effect; potency means the concentration at half of the fitted maximal effect.

| Structure (SMILES) | Potency | activity change, negative = inhibition |
| --- | --- | --- |
| CC(C)CN1CCN(Cc2ccc(C(F)(F)F)cc2)CC1CCO (configuration not stated) | inconclusive: 11.2 µM [inhibitor, single point] | – |
| Cc1ccc(Cl)cc1N1CCN(C(=O)c2cc3c(=O)oc4ccccc4c3s2)CC1 | inconclusive: 3.98 µM [inhibitor, single point] | – |
| Cn1c(O)c(N=NC(=S)Nc2ccccc2F)c2cc(S(=O)(=O)N3CCOCC3)ccc21 | inconclusive: 35.5 µM [inhibitor, single point] | – |
| COc1ccc(N2CCN(C(=O)c3cc(C)on3)CC2)cc1 | – | inactive: 2.73% [at 46.1 µM] |
| CC(C)CC(=O)Nc1nc(-c2ccc(S(=O)(=O)N3CCOCC3)cc2)cs1 | inconclusive: 25.1 µM [inhibitor, single point] | – |
| Cc1ccc(/C=C2\SC(=S)N(CCCC(=O)Nc3cc(C)on3)C2=O)cc1 | inconclusive: 3.55 µM [inhibitor, partial curve, poor fit] | – |
| N#Cc1ccc(CSc2nnc(Nc3ccccc3)s2)cc1 | – | inactive: 11.3% |
| COc1ccc(S(=O)(=O)N/N=C(/C)c2ccc(C)o2)cc1 | – | inactive: -4.89% |
| COc1cc2c(C(=O)N3CCN(C)CC3)c(CSc3ccccc3)n(C)c2cc1Br | inconclusive: 11.2 µM [inhibitor, partial curve, poor fit] | – |
| COc1ccc(NC(=O)Cc2coc3ccc4ccccc4c23)cc1S(=O)(=O)N1CCOCC1 | inconclusive: 35.5 µM [inhibitor, single point] | – |
| CC1CCN(C(=O)c2ccc(NC3=C(Cl)C(=O)N(Cc4ccccc4)C3=O)cc2)CC1 | inconclusive: 35.5 µM [inhibitor, single point] | – |
| O=c1[nH]cnc2c1c(-c1ccccc1)cn2-c1ccc(F)cc1 | inconclusive: 0.708 µM [activator, single point] | – |
| CCOc1ccc(N(CC(=O)NCc2ccc(F)cc2)C(=O)c2ccco2)cc1 | inconclusive: 6.31 µM [inhibitor, full curve] | – |
| CC(C)(C)C(=O)N1CCN(CCN2C(=O)c3cccc4cccc(c34)C2=O)CC1 | inconclusive: 11.2 µM [inhibitor, partial curve, poor fit] | – |
| O=C(OCc1c(Cl)cccc1Cl)c1cnccn1 | inconclusive: 6.31 µM [activator, single point] | – |
| O=C(Nc1ccccc1)c1ccc(CSc2ncccn2)cc1 | inconclusive: 35.5 µM [inhibitor, single point] | – |
| COc1ccc(NC(=O)CCC(=O)c2cccs2)cc1Cl | – | inactive: -4.72% [at 46.1 µM] |
| CCCCOc1ccc(C(=O)N2CCC(C)CC2)cc1 | inconclusive: 0.794 µM [activator, single point] | – |
| COc1ccc(-c2cc(C(=O)N(C)CCc3ccc(OC)c(OC)c3)c3ccccc3n2)cc1 | inconclusive: 11.2 µM [inhibitor, partial curve] | – |
| CCc1cc([N+](=O)[O-])cc(CC)c1N | – | inactive: 9.97% |
| CCOC(=O)CN1C(=O)S/C(=C/c2ccco2)C1=O | inconclusive: 11.2 µM [activator, single point] | – |

Single records, as listed above. Values in the order: Potency	activity change, negative = inhibition
Cc1ccc(/C=C2\SC(=S)N(CCCC(=O)Nc3cc(C)on3)C2=O)cc1 is listed as inconclusive: 3.55 µM [inhibitor, partial curve, poor fit]	–
COc1cc2c(C(=O)N3CCN(C)CC3)c(CSc3ccccc3)n(C)c2cc1Br is listed as inconclusive: 11.2 µM [inhibitor, partial curve, poor fit]	–
CCCCOc1ccc(C(=O)N2CCC(C)CC2)cc1 is listed as inconclusive: 0.794 µM [activator, single point]	–

The list goes on.

| Structure (SMILES) | Potency | activity change, negative = inhibition |
| --- | --- | --- |
| COc1cc(C(=O)Oc2cc(C)cc(C)c2)cc(OC)c1OC | – | inactive: -16% |
| CC1NC(C)(C)Cc2c1ccc1ccccc21 (configuration not stated) | inconclusive: 35.5 µM [inhibitor, single point] | – |
| O=C(Nc1ccc2c(c1)OCO2)Nc1ccc(Br)cn1 | inconclusive: 13 µM [activator, single point] | – |
| CC(C)(C)C(=O)Nc1ccccc1C(=O)OCc1cc(=O)n2ccsc2n1 | – | inactive: -3.41% [at 46.1 µM] |
| COCc1nnc(NC(=O)c2sc3ccccc3c2Cl)s1 | – | inactive: -19.1% |
| Cc1ccc(-n2c(SCC(=O)N3CCCc4ccccc43)nc3c([nH]c4ccccc43)c2=O)cc1 | – | inactive: -6.7% [at 46.1 µM] |
| CCc1ccccc1-n1nnc(-c2nsc(NC(=O)c3ccc(C)c(C)c3)n2)c1C | inconclusive: 20 µM [inhibitor, partial curve, poor fit] | – |
| Cc1ccc(S(=O)(=O)N2CCN(Cc3nc4ccc(C)cc4o3)CC2)c(C)c1 | – | inactive: -19% [at 46.1 µM] |
| COc1ccc(NC(=S)NCCC(c2ccccc2)c2ccccc2)c(OC)c1 | inconclusive: 14.1 µM [inhibitor, single point] | – |
| Cc1nc2ccc(S(=O)(=O)NCC(=O)Nc3ccc(F)cc3F)cc2s1 | inconclusive: 11.2 µM [inhibitor, partial curve, poor fit] | – |
| NCCc1cc(O)c(O)cc1O | inconclusive: 35.3 µM [inhibitor, single point] | – |
| N[C@@H](Cc1cc(I)c(Oc2cc(I)c(O)c(I)c2)c(I)c1)C(=O)O | inconclusive: 0.0315 µM [inhibitor, full curve, poor fit] | – |
| CC(=O)Nc1c(Cl)cc([N+](=O)[O-])c2ccccc12 | inconclusive: 0.291 µM [activator, partial curve, poor fit] | – |
| CCOC(=O)Cc1ccc(NC(=O)N(Cc2ccc(CC)cc2)Cc2cn[nH]c2-c2ccc(OC)cc2)cc1 | inconclusive: 2.82 µM [activator, single point] | – |
| O=C(NCC1CCCO1)c1ccc(COc2ccccc2Br)cc1 (configuration not stated) | inconclusive: 13 µM [inhibitor, partial curve, poor fit] | – |
| Cc1cc(C(=O)Nc2sc3c(c2C#N)CCC(C)C3)no1 (configuration not stated) | inconclusive: 16.4 µM [inhibitor, single point] | – |
| N#C/C(=C/C1=C(N2CCOCC2)C(=C/c2ccc(Cl)cc2Cl)/CC1)C(=O)Nc1ccccc1F | – | inactive: -6.46% [at 46.1 µM] |
| Nc1nn(-c2ccccc2)nc1C(=O)OCc1ccccc1 | inconclusive: 6.31 µM [inhibitor, single point] and inconclusive: 11.2 µM [inhibitor, partial curve, poor fit] | – |
| CCC(CC)NC(=O)c1nn(Cc2ccccc2)c(=O)c2ccccc12 | inconclusive: 10 µM [inhibitor, partial curve, poor fit] | – |
| Cn1nnc(-c2ccc(OCc3ccccc3F)cc2)n1 | inconclusive: 0.461 µM [activator, single point] | – |
| Cc1ccc(NC(=O)CCC(=O)N/N=C/c2cc([N+](=O)[O-])ccc2O)cc1 | inconclusive: 14.1 µM [inhibitor, single point] | – |
